4 compounds from PMC11392244, “Characterization of a unique catechol-O-methyltransferase as a molecular drug target in parasitic filarial nematodes” (PLOS Neglected Tropical Diseases, 2024) can be followed below.

The index is printed as in the source, without its formula.

This series concerns D. immitis microfilariae. The series is described as follows: In vitro efficacy against live D. immitis microfilariae (motility, completely immotile %). The class given is cell-based, Dirofilaria immitis.

For `CO[C@@]12[C@H](COC(N)=O)C3=C(C(=O)C(C)=C(N)C3=O)N1C[C@H]1[C@@H]2N1C` (stereo partly shown) [NSC56410], the “EC50 fold higher than ivermectin” value is 1.8 fold.

In the case of `CO[C@@H]1/C=C\O[C@]2(C)Oc3c(C)c(O)c4c(O)c(c(CN(C)C)c(O)c4c3C2=O)NC(=O)/C(C)=C\C=C[C@@H](C)[C@@H](O)[C@H](C)[C@@H](O)[C@H](C)[C@H](OC(C)=O)[C@@H]1C` [NSC145612], the “EC50 fold higher than ivermectin” value was determined as 1.8 fold.

On to `CO[C@@H]1/C=C/O[C@@]2(C)Oc3c(C)c(O)c4c(c3C2=O)C(=N[C@@H]2CC[C@@H](O)O[C@H]2C)C=C(NC(=O)/C(C)=C\C(=O)[C@@H]2C[C@@H]2[C@H](O)[C@@H](C)[C@@H](O)[C@@H](C)[C@H](OC(C)=O)[C@@H]1C)C4=O` [NSC177383, tolypomycin-Y], for which the “EC50 fold lower than ivermectin” value is “about 1.5 fold”.

With Ivermectin [reference compound], the “Selectivity Index (SI)” value is 2.1.
